Data as given in PubChem BioAssay AID602196 (INSERM, 2012)
Test: 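Modifiers of cisplatin sensitivity in A549 cells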. System: human A549 lung cancer cells. Knock-down reagent: siRNA pair against human genes. Timing: 48 h transfection before cisplatin; time from cisplatin to read-out not stated. Challenge: cisplatin at a dose killing half of control-siRNA cells; exact dose and duration not given. Detection: 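Shift in cisplatin death relative to control siRNA, from -50 (all cells die) to +50 (no cells die); siRNAs harmful on their own scored 0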. Scale: two-siRNA summed score (-2 to +2): higher = both siRNAs protect from cisplatin killing; -2 means both sensitise; mean protection from cisplatin (shift in death): higher = protection from cisplatin killing. Hit rule: 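siRNAs harmful alone (LDH or WST-1) get 0; others get +1 for less and -1 for more cisplatin killing; genes are active when the two siRNAs give the same sign, summing to ±2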. Calls: active = both siRNAs shift cisplatin killing the same way; inactive = no consistent shift, or siRNA harmful alone.
This is a random part of about 23,000 deposited reagents. 455 of them (2%) count as active. 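Active includes both protection and sensitisation; some change values fall well beyond the stated -50 to +50 range.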 Entries without a mark were called inactive. Not all columns of the deposit are shown. No sequences are given here. The record does not give: the amount of reagent.

no.	gene	PubChem SID	two-siRNA summed score (-2 to +2)	mean protection from cisplatin (shift in death) (%)
1	PTPRF (GeneID 5792)	SID131506758	0	-1
2	POP1 (GeneID 10940)	SID131518284	0	17.9
3	EIF3H (GeneID 8667)	SID131513339	0	6.5
4	VKORC1L1 (GeneID 154807)	SID131509066	0	1.8
5	BIVM (GeneID 54841)	SID131501525	-1	-9.2
6	KCNC4 (GeneID 3749)	SID131501107	-1	-12.3
7	MEGF10 (GeneID 84466)	SID131517242	0	12.8
8	ZNF785 (GeneID 146540)	SID131514602	0	8
9	CCDC70 (GeneID 83446)	SID131510074	0	2.8
10	RAB7B (GeneID 338382)	SID131516804	0	11.7
11	ASL (GeneID 435)	SID131508098	0	0.6
12	FLJ14959	SID131513155	0	6.3
13	LOC342970	SID131519666	1	6.9
14	AVPI1 (GeneID 60370)	SID131510114	0	2.9
15	COX7B (GeneID 1349)	SID131508003	0	0.5
16	PHTF2 (GeneID 57157)	SID131520548	1	10.3
17	LOC392176	SID131513490	0	6.6
18	LOC400092	SID131505882	0	-2.4
19	LOC440857	SID131516876	0	11.9
20	LONP2 (GeneID 83752)	SID131504067	0	-6.6
21	MMP24 (GeneID 10893)	SID131503041	0	-15.1
22	EXO1 (GeneID 9156)	SID131502449	-1	-2.2
23	PRR35 (GeneID 146325)	SID131506370	0	-1.6
24	KCNS2 (GeneID 3788)	SID131504060	0	-6.7
25	FPR2 (GeneID 2358)	SID131512487	0	5.5
26	PITPNB (GeneID 23760)	SID131511071	0	4
27	AMT (GeneID 275)	SID131506845	0	-0.9
28	PRICKLE2 (GeneID 166336)	SID131517087	0	12.4
29	LOC442008	SID131509883	0	2.6
30	HOXC11 (GeneID 3227)	SID131507587	0	0
31	RIPK3 (GeneID 11035)	SID131521418	1	13.3
32	ZNF446 (GeneID 55663)	SID131513319	0	6.4
33	ERV3-1 (GeneID 2086)	SID131522917	2 (active)	9.9
34	NECAB3 (GeneID 63941)	SID131517024	0	12.2
35	LOC401442 (GeneID 401442)	SID131509088	0	1.8
36	LOC389159	SID131520063	1	8.5
37	TUFM (GeneID 7284)	SID131513208	0	6.3
38	UBL7-DT (GeneID 440288)	SID131517965	0	15.6
39	AQP6 (GeneID 363)	SID131513816	0	7.1
40	DDX19B (GeneID 11269)	SID131516293	0	10.6
41	DDX19B (GeneID 11269)	SID131518860	0	32.9
42	TRIM67 (GeneID 440730)	SID131511064	0	3.9
43	RSPH6A (GeneID 81492)	SID131517204	0	12.7
44	VWA8 (GeneID 23078)	SID131510529	0	3.3
45	PPM1K (GeneID 152926)	SID131508417	0	1
46	TFDP1P2 (GeneID 441488)	SID131515904	0	9.9
47	MTO1 (GeneID 25821)	SID131505447	0	-3.1
48	RPE (GeneID 6120)	SID131520159	1	8.9
49	PRKDC (GeneID 5591)	SID131509606	0	2.3
50	HCG22 (GeneID 285834)	SID131519040	1	1.4
51	SMIM22 (GeneID 440335)	SID131522090	1	16.2
52	FAM227B (GeneID 196951)	SID131520475	1	10
53	LOC285176	SID131518853	0	32.2
54	ANLN (GeneID 54443)	SID131507484	0	-0.1
55	TPM3P9 (GeneID 147804)	SID131513597	0	6.8
56	COL11A1 (GeneID 1301)	SID131507527	0	0
57	LOC390880	SID131522371	1	18
